Data as given in PubChem BioAssay AID743121 (NCATS, 2013)
The whole screen tested about 26,000 reagents; shown is a random part of them. Of all reagents, 167 (0.63%) were called active. 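Calls are per gene from RSA p-values that are not deposited; an individual active-marked siRNA can sensitise only weakly.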 The numbers tell different reagents against one gene apart.

Screen: 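Genes whose silencing strengthens cell killing by camptothecin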 (primary screen)
Cell system: MDA-MB-231 cells, a human breast cancer line
Reagent: single siRNA against human genes, 20 nM siRNA (0.8 pmol per well)
Duration: 120 h (drug added 48 h after transfection, read 72 h later)
Challenge: camptothecin 20 nM (about EC30) for 72 h; vehicle 0.1% DMSO in parallel plates
Measurement: 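Cell viability by ATP luminescence (CellTiter-Glo) as % of non-targeting siRNA wells, and the log2 ratio of viability without drug over viability with camptothecin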
Reading the numbers: log2 vehicle/camptothecin viability: higher = stronger sensitisation to camptothecin; viability with camptothecin and viability without drug: higher = more viable cells
Hit rule: 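Each gene scored by redundant siRNA activity (RSA) over its individual siRNA ratios; a gene is called active at p < 0.001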

Gene,reagent no.,log2 vehicle/camptothecin viability,viability with camptothecin (% of control),viability without drug (% of control),activity call
ZNF197 (zinc finger protein 197),1,-0.0104,57,56.6,inactive
ZNF197 (zinc finger protein 197),2,-0.232,73.6,62.7,inactive
ZNF197 (zinc finger protein 197),3,-0.18,95.1,83.9,inactive
ZNF197 (zinc finger protein 197),4,-0.337,69,54.7,inactive
CSNK1E (casein kinase 1 epsilon),1,-0.204,63.2,54.9,inactive
CSNK1E (casein kinase 1 epsilon),2,-0.0994,46.6,43.5,inactive
CSNK1E (casein kinase 1 epsilon),3,-0.283,59.8,49.1,inactive
CSNK1E (casein kinase 1 epsilon),4,0.00355,109,109,inactive
IL9R (interleukin 9 receptor),1,-0.195,60.4,52.7,inactive
IL9R (interleukin 9 receptor),2,-0.0232,41.9,41.2,inactive
IL9R (interleukin 9 receptor),3,0.262,70.1,84,inactive
IL9R (interleukin 9 receptor),4,-0.129,64.9,59.4,inactive
ADGRG3 (adhesion G protein-coupled receptor G3),1,-0.203,106,91.7,inactive
ADGRG3 (adhesion G protein-coupled receptor G3),2,0.0192,53.2,53.9,inactive
ADGRG3 (adhesion G protein-coupled receptor G3),3,0.17,50.4,56.7,inactive
ADGRG3 (adhesion G protein-coupled receptor G3),4,-0.689,87,54,inactive
KLF6 (KLF transcription factor 6),1,0.128,8.79,9.61,inactive
KLF6 (KLF transcription factor 6),2,0.753,46.4,78.3,inactive
KLF6 (KLF transcription factor 6),3,-0.073,86.3,82,inactive
KLF6 (KLF transcription factor 6),4,-0.107,64.9,60.2,inactive
TFAP2B (transcription factor AP-2 beta),1,-0.551,58.9,40.2,inactive
TFAP2B (transcription factor AP-2 beta),2,-0.241,81.1,68.6,inactive
TFAP2B (transcription factor AP-2 beta),3,-0.243,97.1,82,inactive
TFAP2B (transcription factor AP-2 beta),4,-0.00703,69.1,68.7,inactive
RAI1 (retinoic acid induced 1),1,0.118,62.5,67.8,inactive
RAI1 (retinoic acid induced 1),2,-0.663,18.1,11.4,inactive
RAI1 (retinoic acid induced 1),3,0.0812,53,56.1,inactive
RGS9 (regulator of G protein signaling 9),1,0.734,51,84.8,inactive
RGS9 (regulator of G protein signaling 9),2,0.549,23.1,33.8,inactive
RGS9 (regulator of G protein signaling 9),3,0.178,68.9,77.9,inactive
RGS9 (regulator of G protein signaling 9),4,-0.197,109,95.5,inactive
DNAJC10 (DnaJ heat shock protein family (Hsp40) member C10),1,0.369,70.6,91.2,inactive
DNAJC10 (DnaJ heat shock protein family (Hsp40) member C10),2,-0.294,79.3,64.6,inactive
DNAJC10 (DnaJ heat shock protein family (Hsp40) member C10),3,-0.277,80.8,66.7,inactive
DNAJC10 (DnaJ heat shock protein family (Hsp40) member C10),4,-0.0824,54.9,51.9,inactive
HERC5 (HECT and RLD domain containing E3 ubiquitin protein ligase 5),1,0.166,71.5,80.2,inactive
HERC5 (HECT and RLD domain containing E3 ubiquitin protein ligase 5),2,-0.209,30.8,26.6,inactive
HERC5 (HECT and RLD domain containing E3 ubiquitin protein ligase 5),3,-0.296,142,116,inactive
HERC5 (HECT and RLD domain containing E3 ubiquitin protein ligase 5),4,-0.249,72.7,61.2,inactive
DIAPH1 (diaphanous related formin 1),1,-0.49,62.3,44.4,inactive
DIAPH1 (diaphanous related formin 1),2,-0.285,78.6,64.5,inactive
DIAPH1 (diaphanous related formin 1),3,-0.327,80.9,64.5,inactive
DIAPH1 (diaphanous related formin 1),4,-0.222,71.8,61.6,inactive
ANAPC2 (anaphase promoting complex subunit 2),1,-1.02,34.2,16.8,inactive
ANAPC2 (anaphase promoting complex subunit 2),2,-0.72,29.4,17.9,inactive
ANAPC2 (anaphase promoting complex subunit 2),3,-0.462,12.8,9.29,inactive
ANAPC2 (anaphase promoting complex subunit 2),4,-1.02,85,41.8,inactive
CD8B (CD8 subunit beta),1,-0.589,116,77.1,inactive
CD8B (CD8 subunit beta),2,-0.664,123,77.6,inactive
CD8B (CD8 subunit beta),3,-0.0414,55.9,54.3,inactive
CD8B (CD8 subunit beta),4,-0.262,50.7,42.3,inactive
CD8B (CD8 subunit beta),5,-0.34,47.3,37.4,inactive
CD8B (CD8 subunit beta),6,0.0288,85.1,86.9,inactive
SMUG1,1,0.36,28.1,36.1,inactive
SMUG1,2,-0.036,79.8,77.8,inactive
SMUG1,3,0.713,33.3,54.6,inactive
TLL1 (tolloid like 1),1,-0.312,58.2,46.9,inactive
TLL1 (tolloid like 1),2,-0.00512,111,110,inactive
TLL1 (tolloid like 1),3,-0.403,65.1,49.3,inactive
TLL1 (tolloid like 1),4,-0.0899,110,104,inactive
CBS (cystathionine beta-synthase),1,-0.304,42.7,34.5,inactive
CBS (cystathionine beta-synthase),2,-0.112,66.9,61.9,inactive
CBS (cystathionine beta-synthase),3,-0.196,39.4,34.4,inactive
CBS (cystathionine beta-synthase),4,-0.00752,63.7,63.3,inactive
DCXR (dicarbonyl and L-xylulose reductase),1,0.695,27.6,44.7,inactive
DCXR (dicarbonyl and L-xylulose reductase),2,0.519,67.1,96.2,inactive
DCXR (dicarbonyl and L-xylulose reductase),3,0.233,60.4,71,inactive
ROPN1 (rhophilin associated tail protein 1),1,0.179,102,115,inactive
ROPN1 (rhophilin associated tail protein 1),2,-0.0341,39.6,38.7,inactive
ROPN1 (rhophilin associated tail protein 1),3,0.189,27,30.8,inactive
ROPN1 (rhophilin associated tail protein 1),4,-0.306,72.7,58.8,inactive
LUZP4 (leucine zipper protein 4),1,-0.234,101,85.9,inactive
LUZP4 (leucine zipper protein 4),2,-0.135,86,78.3,inactive
LUZP4 (leucine zipper protein 4),3,0.0854,72.7,77.1,inactive
PDIA4 (protein disulfide isomerase family A member 4),1,0.00537,21.9,22,inactive
PDIA4 (protein disulfide isomerase family A member 4),2,-0.595,37.9,25.1,inactive
PDIA4 (protein disulfide isomerase family A member 4),3,0.0104,92.4,93.1,inactive
"PIM2 (Pim-2 proto-oncogene, serine/threonine kinase)",1,-0.207,105,90.7,inactive
"PIM2 (Pim-2 proto-oncogene, serine/threonine kinase)",2,-0.04,68.5,66.6,inactive
"PIM2 (Pim-2 proto-oncogene, serine/threonine kinase)",3,-0.104,55.3,51.5,inactive
"PIM2 (Pim-2 proto-oncogene, serine/threonine kinase)",4,-0.109,107,98.8,inactive
SUCNR1 (succinate receptor 1),1,-0.151,26.9,24.3,inactive
SUCNR1 (succinate receptor 1),2,-0.15,75.9,68.4,inactive
SUCNR1 (succinate receptor 1),3,-0.111,78.1,72.3,inactive
SUCNR1 (succinate receptor 1),4,-0.41,127,95.9,inactive
RORB (RAR related orphan receptor B),1,-0.0704,81,77.1,inactive
RORB (RAR related orphan receptor B),2,-0.11,54.6,50.6,inactive
RORB (RAR related orphan receptor B),3,-0.0437,106,103,inactive
RORB (RAR related orphan receptor B),4,0.0986,64.6,69.2,inactive
